In publication PMC9522268 one finds binding data, which are given here for two molecules.

Protein sequences, listed by entry. Tags and fused reporters are not part of them. Lines headed by an entry give the natural chain unless they say otherwise; changes in a name come on top.
UniProt Q5PNS9: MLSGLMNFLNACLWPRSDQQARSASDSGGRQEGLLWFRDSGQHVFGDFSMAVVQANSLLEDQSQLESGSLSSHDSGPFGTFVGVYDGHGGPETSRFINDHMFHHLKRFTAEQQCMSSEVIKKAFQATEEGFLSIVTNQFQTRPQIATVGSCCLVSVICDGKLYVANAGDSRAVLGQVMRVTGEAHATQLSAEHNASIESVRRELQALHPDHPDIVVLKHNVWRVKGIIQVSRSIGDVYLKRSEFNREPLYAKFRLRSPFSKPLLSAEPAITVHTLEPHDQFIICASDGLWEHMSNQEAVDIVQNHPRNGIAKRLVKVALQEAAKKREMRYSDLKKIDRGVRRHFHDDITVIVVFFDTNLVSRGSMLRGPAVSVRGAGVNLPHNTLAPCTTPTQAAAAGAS

Assay [1] addresses T1, SAUR63:YFP:HA fusion protein (Arabidopsis thaliana) (UniProt F4I1H5).
T1 sequence: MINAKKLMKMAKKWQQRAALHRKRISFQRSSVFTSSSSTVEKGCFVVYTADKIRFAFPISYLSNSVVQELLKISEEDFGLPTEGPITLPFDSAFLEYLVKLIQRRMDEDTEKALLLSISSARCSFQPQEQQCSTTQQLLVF
In words: co-IP; microsomes of pooled F2 Arabidopsis seedlings solubilized in PBS + 1.5% Triton X-100; α-HA magnetic beads, 2h at 4°C; washed with PBS + 1% Triton-X-100; blots with α-GFP and α-HA.

Assay [2] has as its target PP2C.D5 phosphatase split-YFP fusion for BiFC (Arabidopsis thaliana) (UniProt Q5PNS9). In words: split reporter; BiFC with YFP^N and YFP^C fusions in transiently transformed Nicotiana benthamiana leaf cells; confocal imaging of reconstituted yellow fluorescence.

These are yes or no findings as the source states them, for the method shown. In cells and extracts the contact can be indirect. Binding can be weak; no strength is given. Where a sequence is shown, tags or fusion partners need not be part of it.

With “PP2C.D5:GFP fusion protein (Arabidopsis thaliana) (enzyme)”, the binding result in assay [1] is “binds”.

B1: SAUR63 (Small Auxin Up RNA 63) split-YFP fusion for BiFC (protein, UniProt F4I1H5 1-141)
chain: T1 sequence
Turning to B1, in assay [2], the binding result is “binds”.
